From the supplement of paper PMC10663445
Structures can show the parent of a compound that is named as a salt. Some of the results follow. Single values are uncertain, as repeats are few or missing.

The compounds below were run on hsa-miR-132-3p (assay: miR-132-3p level in NGN2-iNs after compound treatment (TMM-normalised, ComBat batch-corrected) (batch-corrected normalised expression (arbitrary units)); higher = higher miR-132-3p expression). Conditions: 10 µM; 24 h; human iPSC-derived NGN2 neurons (BR43).

Row | SMILES | miR-132-3p level in NGN2-iNs
1 | O=C(c1ccc(OCCCc2c[nH]cn2)cc1)C1CC1 [Ciproxifan Maleate] | 0.483
2 | CC(C)[C@H](N)C(=O)OCC(CO)OCn1cnc2c(=O)[nH]c(N)nc21 (some centres undefined) [Valganciclovir HCl] | -0.479
3 | O=c1[nH]c(=O)n([C@H]2C[C@H](O)[C@@H](CO)O2)cc1F [Floxuridine] | 0.0667
4 | COc1cc(/C=C/C(=O)O)ccc1O [Ferulic Acid] | 1.53
5 | C[N+]1(C)CCC(=C(c2ccccc2)c2ccccc2)CC1 [Diphemanil Methylsulfate] | 1.21
6 | NS(=O)(=O)c1cc2c(cc1Cl)NCNS2(=O)=O [Hydrochlorothiazide] | 0.353
7 | O=C(NC1CCOCC1)c1ccc(-c2cc(-c3c[nH]nc3-c3ccccn3)ccn2)cc1 | -0.603
8 | CN(C)CCc1c[nH]c2ccc(C[C@H]3COC(=O)N3)cc12 [Zolmitriptan] | 0.185
9 | O=C1c2cccc(O)c2C(=O)c2c(O)cc(CO)cc21 [Aloe-emodin] | 0.434
10 | CC(C)(F)C[C@H](N[C@@H](c1ccc(-c2ccc(S(C)(=O)=O)cc2)cc1)C(F)(F)F)C(=O)NC1(C#N)CC1 [Odanacatib (MK-0822)] | 0.3
11 | COc1cc(C)c(/C=C/C(C)=C/C=C/C(C)=C/C(=O)O)c(C)c1C [Acitretin] | -2.85
12 | C[C@@H]1C(=O)O[C@H]2C[C@@]34[C@H]5C[C@@H](C(C)(C)C)[C@]36[C@@H](OC(=O)[C@@H]6O)O[C@@]4(C(=O)O5)[C@]21O [Ginkgolide A] | 0.63
13 | NC(=O)c1ncn([C@@H]2O[C@H](CO)[C@@H](O)[C@H]2O)c1N [AICAR (Acadesine)] | 0.718
14 | CC(=O)OCC(=O)[C@@]1(O)CC[C@H]2[C@@H]3CCC4=CC(=O)CC[C@]4(C)[C@H]3C(=O)C[C@@]21C [Cortisone acetate] | -0.847
15 | O=C1c2c(O)cc(O)cc2OC(c2ccc(O)c(O)c2)C1O (centres undefined) [Taxifolin (Dihydroquercetin)] | 0.677
16 | FC(F)(F)c1ccc(/C=C/c2nc(COc3ccc(CCCCn4ccnn4)cc3)co2)cc1 [Mubritinib (TAK 165)] | 2.33
17 | CNC(=O)c1nn(C)c2c1C(C)(C)Cc1cnc(Nc3ccc(N4CCN(C)CC4)cc3)nc1-2 | -1.91
18 | CC(C)(O)CC[C@@H](O)[C@](C)(O)[C@H]1CC[C@@]2(O)C3=CC(=O)[C@@H]4C[C@@H](O)[C@@H](O)C[C@]4(C)[C@H]3CC[C@]12C [20-Hydroxyecdysone] | 1.16
19 | COc1cc2nc(N3CCN(C(=O)C4CCCO4)CC3)nc(N)c2cc1OC (centres undefined) [Terazosin HCl Dihydrate] | 0.617
20 | CCc1c2c(nc3ccc(OC(=O)N4CCC(N5CCCCC5)CC4)cc13)-c1cc3c(c(=O)n1C2)COC(=O)[C@]3(O)CC [Irinotecan HCl Trihydrate] | 1.41

Shown with tabs: entries from further up.
Row	SMILES	miR-132-3p level in NGN2-iNs
14	CC(=O)OCC(=O)[C@@]1(O)CC[C@H]2[C@@H]3CCC4=CC(=O)CC[C@]4(C)[C@H]3C(=O)C[C@@]21C [Cortisone acetate]	-0.847
15	O=C1c2c(O)cc(O)cc2OC(c2ccc(O)c(O)c2)C1O (centres undefined) [Taxifolin (Dihydroquercetin)]	0.677
16	FC(F)(F)c1ccc(/C=C/c2nc(COc3ccc(CCCCn4ccnn4)cc3)co2)cc1 [Mubritinib (TAK 165)]	2.33
17	CNC(=O)c1nn(C)c2c1C(C)(C)Cc1cnc(Nc3ccc(N4CCN(C)CC4)cc3)nc1-2	-1.91
18	CC(C)(O)CC[C@@H](O)[C@](C)(O)[C@H]1CC[C@@]2(O)C3=CC(=O)[C@@H]4C[C@@H](O)[C@@H](O)C[C@]4(C)[C@H]3CC[C@]12C [20-Hydroxyecdysone]	1.16
19	COc1cc2nc(N3CCN(C(=O)C4CCCO4)CC3)nc(N)c2cc1OC (centres undefined) [Terazosin HCl Dihydrate]	0.617
20	CCc1c2c(nc3ccc(OC(=O)N4CCC(N5CCCCC5)CC4)cc13)-c1cc3c(c(=O)n1C2)COC(=O)[C@]3(O)CC [Irinotecan HCl Trihydrate]	1.41

The listing continues:

Row | SMILES | miR-132-3p level in NGN2-iNs
21 | CCc1c2c(nc3ccc(OC(=O)N4CCC(N5CCCCC5)CC4)cc13)-c1cc3c(c(=O)n1C2)COC(=O)[C@]3(O)CC [Irinotecan] | 0.371
22 | OC[C@H]1O[C@@H](OCCc2ccc(O)cc2)[C@H](O)[C@@H](O)[C@@H]1O [Salidroside] | -0.503
23 | C[C@H]1[C@H](NC(=O)/C(=N\OC(C)(C)C(=O)O)c2csc(N)n2)C(=O)N1S(=O)(=O)O [Aztreonam] | 0.249
24 | CCOC(=O)NCCCC(=O)NCCc1ccccc1 | -1.51
25 | C=C1/C(=C\C=C2/CCC[C@]3(C)[C@@H]([C@H](C)CCCC(C)(C)O)CC[C@@H]23)C[C@@H](O)C[C@@H]1O [Calcitriol] | 0.48
26 | Cc1cn([C@@H]2C[C@@H](O)[C@H](CO)O2)c(=O)[nH]c1=O [Telbivudine] | -0.36
27 | O=C(N/N=C/c1ccc([N+](=O)[O-])o1)c1ccc(O)cc1 [Nifuroxazide] | 0.331
28 | Cc1cccc(Nc2cc(Cl)nc(SCC(=O)O)n2)c1C | -0.0507
29 | Cc1cc(NC(=O)c2cccc(NC(=O)/C=C/CN(C)C)c2)ccc1Nc1nccc(-c2cccnc2)n1 | 0.27
30 | OCc1ccc(O[C@@H]2O[C@H](CO)[C@@H](O)[C@H](O)[C@H]2O)cc1 [Gastrodin] | -0.273
31 | O=C(NC(NC(=S)Nc1ccc(F)c([N+](=O)[O-])c1)C(Cl)(Cl)Cl)C(c1ccccc1)c1ccccc1 (centres undefined) | -0.361
32 | Cn1cc(C2=C(c3ccc(Cl)cc3Cl)C(=O)NC2=O)c2ccccc21 | 0.0159
33 | CCc1cc(C(N)=S)ccn1 [Ethionamide] | -1.25
34 | CCn1cc(C(=O)O)c(=O)c2cc(F)c(N3CCN(C)CC3)cc21 [Pefloxacin Mesylate] | 0.37
35 | CCn1cc(C(=O)O)c(=O)c2cc(F)c(N3CCN(C)CC3)cc21 [Pefloxacin Mesylate Dihydrate] | -0.554
36 | CCNC(=O)c1noc(-c2cc(Cl)c(O)cc2O)c1-c1ccc(OC)cc1 | -1.04
37 | C[C@@H]1CN(c2c(F)c(N)c3c(=O)c(C(=O)O)cn(C4CC4)c3c2F)C[C@H](C)N1 [Sparfloxacin] | -0.0665
38 | COc1cc(NC(=O)c2ccc(-c3ccc(Cl)cc3)o2)cc(OC)c1 | -1.56
39 | C[C@]12C=CC(=O)C=C1CC[C@@H]1[C@@H]2C(=O)C[C@@]2(C)[C@H]1CC[C@]2(O)C(=O)CO [Prednisone] | 0.982
